HELM strings list residues between dots; [ac] is acetyl, [am] amide, other brackets name non-standard units.
Assay: general procedure: Fmoc solid-phase peptide synthesis
Conditions: for crude purity (method not given): cyclisation step; for conjugation yield: conjugation step

Substance	crude purity (method not given) [%]	conjugation yield [%]
(PYA)-(B-Ala)-Sar10-A(Dap)(D-Ala)NE(1Nal)(D-Ala)CEDFYD(tBuGly)(Dap)	60	
Ac-A(Dap(Me))(D-Ala)NE(1Nal)(D-Ala)CEDFYD(tBuGly)(Dap(Me))	96	
Ac-A(Dap)(D-Ala)NE(1Nal)(D-Ala)CEDFFD(tBuGly)(Dap)	95	
Ac-A(Dap)(D-Ala)NE(1Nal)(D-Ala)CEDFYD(tBuGly)(Dap)	94	
PEPTIDE1{[MMAE-PABC-Cit-Val-glutaryl].[bAla].[Sar].[Sar].[Sar].[Sar].[Sar].[Sar].[Sar].[Sar].[Sar].[Sar].A.[DapMe].[dA].N.E.[1Nal].[dA].C.E.D.F.Y.D.[tBuGly].[DapMe].[am]}|CHEM1{[TBMB]}$PEPTIDE1,CHEM1,14:R3-1:R1|PEPTIDE1,CHEM1,20:R3-1:R2|PEPTIDE1,CHEM1,27:R3-1:R3$$$V2.0		29
PEPTIDE1{[MMAE-PABC-Cit-Val-trz-PYA].A.[DapMe].[dA].N.E.[1Nal].[dA].C.E.D.F.Y.D.[tBuGly].[DapMe].[am]}|CHEM1{[TBMB]}$PEPTIDE1,CHEM1,3:R3-1:R1|PEPTIDE1,CHEM1,9:R3-1:R2|PEPTIDE1,CHEM1,16:R3-1:R3$$$V2.0		42
PEPTIDE1{[MMAE-PABC-Cit-Val-trz-PYA].A.[Dap].[dA].N.E.[1Nal].[dA].C.E.D.F.Y.D.[tBuGly].[Dap].[am]}|CHEM1{[TBMB]}$PEPTIDE1,CHEM1,3:R3-1:R1|PEPTIDE1,CHEM1,9:R3-1:R2|PEPTIDE1,CHEM1,16:R3-1:R3$$$V2.0		41.02
PEPTIDE1{[MMAE-PABC-Cit-Val-trz-PYA].[bAla].[Sar].[Sar].[Sar].[Sar].[Sar].[Sar].[Sar].[Sar].[Sar].[Sar].A.[DapMe].[dA].N.E.[1Nal].[dA].C.E.D.F.Y.D.[tBuGly].[DapMe].[am]}|CHEM1{[TBMB]}$PEPTIDE1,CHEM1,14:R3-1:R1|PEPTIDE1,CHEM1,20:R3-1:R2|PEPTIDE1,CHEM1,27:R3-1:R3$$$V2.0		35
PEPTIDE1{[MMAE-PABC-Cit-Val-trz-PYA].[bAla].[Sar].[Sar].[Sar].[Sar].[Sar].[Sar].[Sar].[Sar].[Sar].[Sar].A.[Dap].[dA].N.E.[1Nal].[dA].C.E.D.F.Y.D.[tBuGly].[Dap].[am]}|CHEM1{[TBMB]}$PEPTIDE1,CHEM1,14:R3-1:R1|PEPTIDE1,CHEM1,20:R3-1:R2|PEPTIDE1,CHEM1,27:R3-1:R3$$$V2.0		54.64

— patent US11730819B2 (priority 2016, dated 2023)
